## Results of single-concentration screens

Protein sequences, listed by entry. Tags and fused reporters are not part of them. Residues count along the entry.
UniProt P9WNZ1, whole entry: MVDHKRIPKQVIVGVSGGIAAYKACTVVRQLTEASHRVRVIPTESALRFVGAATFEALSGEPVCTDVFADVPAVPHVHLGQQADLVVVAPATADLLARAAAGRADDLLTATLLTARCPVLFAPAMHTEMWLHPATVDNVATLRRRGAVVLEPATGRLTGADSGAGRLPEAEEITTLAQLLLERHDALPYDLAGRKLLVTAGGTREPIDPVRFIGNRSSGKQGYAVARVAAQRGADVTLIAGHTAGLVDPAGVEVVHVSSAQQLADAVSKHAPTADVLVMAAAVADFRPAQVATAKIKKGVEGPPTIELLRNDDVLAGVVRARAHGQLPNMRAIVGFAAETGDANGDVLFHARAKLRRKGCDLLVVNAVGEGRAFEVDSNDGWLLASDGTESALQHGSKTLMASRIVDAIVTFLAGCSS
UniProt I6X8D2, whole entry: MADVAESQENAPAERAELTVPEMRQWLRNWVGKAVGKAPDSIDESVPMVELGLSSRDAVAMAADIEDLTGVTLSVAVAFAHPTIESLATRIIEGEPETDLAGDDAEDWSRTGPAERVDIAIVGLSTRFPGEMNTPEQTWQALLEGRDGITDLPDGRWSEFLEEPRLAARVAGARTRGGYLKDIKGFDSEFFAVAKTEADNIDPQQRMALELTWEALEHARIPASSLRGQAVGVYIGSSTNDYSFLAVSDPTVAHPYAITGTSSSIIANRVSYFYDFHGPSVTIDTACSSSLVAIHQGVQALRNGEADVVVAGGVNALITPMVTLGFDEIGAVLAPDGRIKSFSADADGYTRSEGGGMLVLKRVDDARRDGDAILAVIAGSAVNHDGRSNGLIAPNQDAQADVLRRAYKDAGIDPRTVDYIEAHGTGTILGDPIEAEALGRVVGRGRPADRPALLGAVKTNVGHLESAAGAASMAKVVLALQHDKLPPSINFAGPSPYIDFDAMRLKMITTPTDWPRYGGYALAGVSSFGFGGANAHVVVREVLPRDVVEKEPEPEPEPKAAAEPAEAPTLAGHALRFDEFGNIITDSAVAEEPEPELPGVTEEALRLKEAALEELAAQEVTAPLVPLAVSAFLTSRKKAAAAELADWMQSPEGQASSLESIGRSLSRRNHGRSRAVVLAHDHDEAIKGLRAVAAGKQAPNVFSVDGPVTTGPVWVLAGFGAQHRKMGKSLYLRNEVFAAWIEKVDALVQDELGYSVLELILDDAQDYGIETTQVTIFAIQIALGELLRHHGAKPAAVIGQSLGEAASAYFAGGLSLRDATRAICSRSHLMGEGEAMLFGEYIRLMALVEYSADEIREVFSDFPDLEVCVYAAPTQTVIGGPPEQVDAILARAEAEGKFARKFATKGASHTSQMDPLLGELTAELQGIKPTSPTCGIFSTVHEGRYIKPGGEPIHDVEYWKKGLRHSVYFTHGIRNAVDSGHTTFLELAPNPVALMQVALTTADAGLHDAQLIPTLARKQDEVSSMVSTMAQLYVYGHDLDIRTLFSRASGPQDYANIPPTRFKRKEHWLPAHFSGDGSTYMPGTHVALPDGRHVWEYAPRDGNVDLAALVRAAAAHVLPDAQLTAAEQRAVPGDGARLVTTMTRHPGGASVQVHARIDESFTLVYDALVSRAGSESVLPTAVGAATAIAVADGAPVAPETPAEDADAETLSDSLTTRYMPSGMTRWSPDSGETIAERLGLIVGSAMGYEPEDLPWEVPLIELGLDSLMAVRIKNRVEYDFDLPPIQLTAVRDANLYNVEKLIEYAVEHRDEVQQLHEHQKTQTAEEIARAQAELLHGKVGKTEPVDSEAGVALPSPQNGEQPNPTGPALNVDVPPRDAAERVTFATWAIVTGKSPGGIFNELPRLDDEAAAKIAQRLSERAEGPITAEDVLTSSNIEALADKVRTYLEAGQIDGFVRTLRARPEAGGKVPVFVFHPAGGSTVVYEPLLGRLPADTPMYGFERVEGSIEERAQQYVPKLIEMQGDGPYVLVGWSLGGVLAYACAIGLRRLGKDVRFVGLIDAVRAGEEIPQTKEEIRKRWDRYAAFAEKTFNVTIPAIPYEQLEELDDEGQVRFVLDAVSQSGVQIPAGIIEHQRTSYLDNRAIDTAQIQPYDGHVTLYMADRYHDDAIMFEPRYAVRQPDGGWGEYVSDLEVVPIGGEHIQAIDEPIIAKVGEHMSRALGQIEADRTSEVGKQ
UniProt P9WPC5, whole entry: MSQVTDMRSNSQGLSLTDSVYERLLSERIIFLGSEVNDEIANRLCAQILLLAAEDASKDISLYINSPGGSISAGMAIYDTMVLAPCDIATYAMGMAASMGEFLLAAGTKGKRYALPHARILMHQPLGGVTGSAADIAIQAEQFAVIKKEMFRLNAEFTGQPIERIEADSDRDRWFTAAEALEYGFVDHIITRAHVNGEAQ
UniProt P9WPC3, whole entry partner: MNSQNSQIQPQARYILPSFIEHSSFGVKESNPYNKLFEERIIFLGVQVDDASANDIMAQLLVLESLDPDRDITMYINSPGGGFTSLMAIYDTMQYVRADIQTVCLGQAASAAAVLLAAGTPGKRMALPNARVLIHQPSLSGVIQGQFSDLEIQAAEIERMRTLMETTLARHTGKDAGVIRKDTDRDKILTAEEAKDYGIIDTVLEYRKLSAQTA
UniProt A4I591, 1-473: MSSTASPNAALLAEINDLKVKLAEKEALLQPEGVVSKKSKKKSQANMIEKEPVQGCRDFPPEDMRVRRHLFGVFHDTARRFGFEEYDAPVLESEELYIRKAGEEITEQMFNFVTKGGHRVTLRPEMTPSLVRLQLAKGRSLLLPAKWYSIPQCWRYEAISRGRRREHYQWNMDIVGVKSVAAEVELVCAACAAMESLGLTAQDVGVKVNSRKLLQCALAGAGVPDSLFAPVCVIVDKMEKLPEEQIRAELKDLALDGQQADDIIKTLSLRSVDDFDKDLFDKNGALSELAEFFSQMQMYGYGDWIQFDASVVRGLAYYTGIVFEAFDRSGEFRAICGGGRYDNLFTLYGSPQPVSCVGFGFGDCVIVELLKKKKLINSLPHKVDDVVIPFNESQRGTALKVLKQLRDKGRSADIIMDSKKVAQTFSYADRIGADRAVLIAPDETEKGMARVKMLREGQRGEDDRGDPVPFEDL
UniProt P9WFT3, whole entry: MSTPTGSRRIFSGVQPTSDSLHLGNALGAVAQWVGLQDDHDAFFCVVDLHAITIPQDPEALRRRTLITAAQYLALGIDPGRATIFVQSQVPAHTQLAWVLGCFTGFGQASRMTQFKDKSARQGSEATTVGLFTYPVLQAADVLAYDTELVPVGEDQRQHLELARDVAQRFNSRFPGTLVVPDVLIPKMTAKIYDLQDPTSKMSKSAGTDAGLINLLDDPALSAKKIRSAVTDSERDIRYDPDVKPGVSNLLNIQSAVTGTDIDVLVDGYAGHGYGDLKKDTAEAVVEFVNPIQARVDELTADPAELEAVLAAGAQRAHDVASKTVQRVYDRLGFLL

Data taken from ChEMBL document CHEMBL3988442, “University of Dundee, Small-Polar-MMV Screening Library” (2021).

Results are given as percent effect. The controls that fix the scale are not given in the record; negative values are as filed. This is an unselected part of the compounds tested. A dash means the value is not listed here; it may have been measured.

CoaBC: 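Coenzyme A biosynthesis protein CoaBC, Mycobacterium tuberculosis (UniProt P9WNZ1). Enzyme assay of CoaBC with a phosphate dye (Biomol Green) read at 650 nm. Tested at 30 µM. Direction is inferred from only a few compounds that gave an IC50; most scored high, so higher reads as stronger inhibition. Most strong results did not repeat in a second test. Size under these conditions: about 67,000 compounds, about 40 of them at 50% or above in at least one test.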
Pks13 thioesterase: 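Polyketide synthase Pks13, Mycobacterium tuberculosis (UniProt I6X8D2). Enzyme assay of the thioesterase domain of polyketide synthase 13; the read-out is not stated. Tested at 30 µM. The record gives no direction; the compounds picked for IC50 retests had high values, so higher reads as stronger inhibition. About 67,000 compounds were tested under these conditions; 0.46% (about 300) showed 50% or more at least once.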
ClpP1P2: 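ClpP1P2, Mycobacterium tuberculosis (UniProt P9WPC5 and UniProt P9WPC3). Protease assay of ClpP1P2, read by the AMC dye that it sets free. Concentration: 50 µM. Direction is inferred from only a few compounds that gave an IC50; most scored high, so higher reads as stronger inhibition. Most other retested compounds had strongly negative values. Size under these conditions: about 69,000 compounds, about 10 of them at 50% or above in at least one test.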
LiHisRS: 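Histidine-tRNA ligase, Leishmania infantum (UniProt A4I591). Enzyme assay of histidyl-tRNA synthetase; the read-out is not stated. Tested at 30 µM. Higher reads as stronger inhibition (inferred: compounds with an IC50 in retests scored well above the rest). The assay is labelled LdHisRS but filed under L. infantum. About 69,000 compounds were tested under these conditions; 0.6% (about 410) showed 50% or more at least once.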
MtTrpRS: 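Enzyme assay of tryptophanyl-tRNA synthetase; the read-out is not stated. Target: Tryptophan-tRNA ligase, Mycobacterium tuberculosis (UniProt P9WFT3). Tested at 10 µM. Direction is not recorded; retested compounds ran higher, which suggests that high means inhibition. About 65,000 compounds were tested under these conditions; 0.098% (about 64) showed 50% or more at least once.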

Compound | CoaBC | Pks13 thioesterase | ClpP1P2 | LiHisRS | MtTrpRS
CCOc1ccccc1CN(CC)Cc1ccc(S(=O)(=O)NC)cc1 | 8.835% | -12.69% | 1.58% | 10.45% | 0.273%
CN1C(=O)[C@H]2CC[C@@H]1CN(C(=O)c1csc(Cc3ccccc3)n1)C2 | 3.297% | -10.18% | -5.684% | 2.857% | 1.165%
COc1cc(C(=O)N(C)Cc2cc(C(=O)O)c(C)o2)cc(OC)c1OC | 7.692% | -39.22% | -15.25% | 11.97% | -9.493%
c1coc(CN2CC[C@H]3O[C@@H](COCC4CC4)CC[C@H]32)c1 | 2.423% | 0.9132% | -8.633% | -3.191% | -3.592%
Cn1c(=O)c2sccc2n(Cc2ccccc2)c1=O | -1.38% | -37.94% | -13.05% | 13.56% | -0.8675%
CCCN1CC2(CCN(C)CC2)CC1C(=O)NCc1cc(C)nn1C (stereo not drawn) | -0.8739% | -6.503% | -1.971% | 8.264% | 0.6255%
CC(C)N1CCC(Cc2cc(-c3cccc(C(=O)O)c3)ncn2)C1 (stereo not drawn) | 3.889% | -27.17% | -6.594% | 8.333% | -2.09%
O=S(=O)(NCc1cccnc1OC1CCCC1)N1CCOCC1 | 1.716% | -13.1% | -7.265% | -133.3% | 5.062%
CCC1CN(C)c2ccccc2CN1C(=O)Nc1ccccc1OC (stereo not drawn) | 11.02% | 16.53% | 0.6203% | 8.163% | 25.56%
CCc1n[nH]c(C2CN(Cc3nnc(C4CC4)o3)CCO2)n1 (stereo not drawn) | 2.625% | 0.9228% | -5.547% | 10.17% | -10.09%
c1nc2onc(C3CC3)c2cc1-c1nnc(C2CC2)o1 | -0.319% | -5.618% | -8.562% | 8.333% | -0.4854%
CNC(=O)COc1ccc(CNCc2ccc(F)cc2F)cc1 | -3.797% | -0.862% | -3.19% | 16.35% | -3.602%
O=C(COC1CCCC1)N1CCCN(c2ncccn2)CC1 | 5.305% | -3.01% | 2.319% | 4.386% | 4.668%
CS(=O)(=O)c1ccc(OCCNCc2c(F)cccc2F)cc1 | 6.909% | -30.34% | -15.32% | 16.13% | -1.347%
CN(C)Cc1ccccc1CN(C)c1ncnc2[nH]ccc12 | 0.6148% | -22.61% | 0.2638% | 1.429% | -0.722%
CCCNC(=O)C(C)Nc1ccn(Cc2ccccn2)n1 (stereo not drawn) | 8.554% | -3.036% | -7.044% | 14.71% | -0.4955%
CSCc1ccc(N2CCC(C(O)CC(C)C)CC2)nc1 (stereo not drawn) | -15.26% | 6.302% | -8.751% | -19.4% | -1.365%
CC(C)C(=O)N1CCCC(Cc2ncccn2)C1 (stereo not drawn) | 2.968% | 7.968% | -31.16% | 4.027% | -2.137%
COc1ccccc1OCC(=O)NCC(O)(c1cccs1)C1CC1 (stereo not drawn) | 2.036% | -12.36% | -9.489% | 23.08% | 4.248%
CCn1nc(C)c2c1cnn2CCNS(C)(=O)=O | -1.02% | 0.6248% | -14.95% | 23.46% | 6.365%
CC(C(=O)N1CCC(Cc2ccc(F)cc2)CC1)n1ccnc1 (stereo not drawn) | 0.8464% | -27.07% | -2.248% | 20.97% | -3.489%
CCc1nccn1-c1cccc(C2CCCN(C3CCCCC3)C2)n1 (stereo not drawn) | 4.126% | -14.58% | 0.7764% | 42.03% | -
CNC(=O)Cc1cc2nccc(-c3c(OC)cccc3OC)n2n1 | 2.53% | 22.42% | -12% | 14.29% | -
CS(=O)(=O)N1CCc2[nH]cnc2C12CCN(C(=O)c1ccccc1)CC2 | -1.091% | -12.38% | 5.364% | 6.452% | -2.559%
CC(NC(=O)C1CC1)C(=O)N(C)Cc1ccsc1 (stereo not drawn) | 3.694% | -17.27% | 7.438% | 9.326% | 0.7157%
CC(C)(C)c1n[nH]c(C2CN(CC3CCC3)CCO2)n1 (stereo not drawn) | 7.692% | -25.82% | 1.305% | 14.29% | 3.96%
CC(C)(C)c1cn2nc(N3CCCC(Cn4cncn4)C3)sc2n1 (stereo not drawn) | 6.105% | 2.362% | -0.2721% | 3.774% | -1.979%
O=C1COc2cc(C(=O)NS(=O)(=O)c3ccc(F)cc3)ccc2N1 | 0.1304% | -5.161% | -5.049% | 0.8772% | -4.773%
c1cncc(CN2CCCC3(COCCN(c4nccs4)C3)C2)c1 (stereo not drawn) | 5.5% | 8.087% | -1.156% | 20% | -1.72%
CN(C)c1cc(C2CCN(C(=O)c3cnn(C)c3)CC2)ccn1 | -9.198% | -0.7594% | -12.45% | 8.696% | -5.252%
CS(=O)(=O)NC1CC2(CCN(CCF)CC2)Oc2ccccc21 (stereo not drawn) | -3.704% | -26.28% | 4.275% | 15.28% | -0.9982%
COC1CCN(C(=O)CCc2c(C)nc3ccnn3c2C)CC1 | 1.503% | -1.216% | -8.11% | 4.545% | 5.361%
c1cncc(N2CCOC3(CCCN(c4nncs4)C3)C2)c1 (stereo not drawn) | 4% | -9.669% | 6.616% | 15.04% | -1.036%
Cn1cc(N2CCN(c3ccc(C#N)cc3Br)CC2=O)cn1 | 2.577% | 9.724% | -4.183% | 11.76% | 0.5757%
Cc1ccc(NC(=O)C2CSCN2C(=O)c2cc[nH]n2)c(C)c1 (stereo not drawn) | 1.295% | -9.912% | 5.388% | 0% | 0.9651%
Cc1cc(-c2cnn(CCNC(=O)CCn3cccn3)c2C2CC2)on1 | 1.211% | 13.8% | 1.358% | 16.49% | -
COc1ccc(C(=O)N2C[C@@H](CN3CCOCC3)[C@@H](CO)C2)c(C)c1 | 1.754% | -3.602% | -6.93% | 11.43% | 2.59%
CCOC(C)C(=O)NS(=O)(=O)c1cccc2cc(C)cnc12 (stereo not drawn) | 2.727% | 1.76% | -7.081% | 21.92% | -2.825%
Cc1ccc(N(C)C2CCCN(C(=O)Nc3ccc(F)cc3F)C2)cc1 (stereo not drawn) | 4.369% | -30.43% | -13.3% | -7.229% | -4.078%
Cc1noc([C@]23COC[C@H]2CN(C(=O)N2CCCC2)C3)n1 | 1.238% | -0.1192% | -1.932% | 15.32% | -
CNC(=O)NC(=O)CN1CCc2c(Br)ccc(F)c2C1 | -2.675% | -32.64% | -12.49% | 6.218% | -5.215%
Cc1ccn(-c2ccnc(N3CCC(N4CCCCC4)CC3)n2)n1 | 5.19% | 0.134% | -20.35% | 2.5% | -0.2712%
Cc1nn(C)c(Cl)c1C1CCCN1c1ncnc2sccc12 (stereo not drawn) | 13.84% | -37.48% | -23.24% | 22.33% | -0.5329%
CCCC(=O)N(C)CC(=O)Nc1ccc(Br)cn1 | 1.044% | -8.962% | -16.18% | 15.52% | -6.377%
COc1cccc(CN(C)C(=O)CN2CCN(CCO)CC2)c1 | -17.41% | -11.39% | 3.472% | 14.56% | -1.954%
COc1cc(NC(=O)NCC2CCCO2)cc(OC)c1 (stereo not drawn) | 4.707% | -16.89% | -4.918% | -5.31% | 1.864%
CC(NC(=O)CCCC(=O)c1cccs1)c1nnc2n1CCC2 (stereo not drawn) | 12.5% | 5.045% | 3.736% | 10.71% | 1.026%
O=C(N[C@@H]1CCC[C@@H](N2CCCC2)[C@@H]1O)c1cc2ccccc2[nH]1 | 12.41% | -20.67% | 18.02% | 15.79% | 6.203%
CC(NC(=O)CCCc1ccc(Cl)cc1)c1nnn[nH]1 (stereo not drawn) | -1.542% | -22.35% | 0.9504% | 5.208% | -2.183%
Cc1ccc(NC2CCN(C(=O)Cc3ccc(C)s3)CC2)nn1 | 1.863% | -9.745% | 9.012% | 26.32% | 1.372%
CN(Cc1cccnc1)[C@@H]1CN(Cc2ccccn2)[C@@H]2CCCO[C@H]12 | 3.083% | -8.369% | -25.05% | 8.333% | -1.684%
CC(C)NC(=O)[C@H]1C[C@H]2OCC[C@H]2N(Cc2ccc3ccccc3n2)C1 | 7.5% | -11.25% | 1.031% | 30% | 3.284%
CN1CC(=O)N(C2CCNC2)Cc2c(NC3CCCC3)ncnc21 (stereo not drawn) | 1.842% | -7.281% | -17.83% | 1.379% | 1.988%
CCN(CC)C(=O)CN(C)C(=O)c1cccn1CCc1ccccc1 | 1.238% | -9.814% | -14.54% | 14% | -0.2075%
CCN(CC(=O)NC(C)C)C(=O)c1csc(Cc2ccccc2)n1 | 8.712% | -1.887% | 1.458% | 9.804% | 3.043%
N#CCc1ccc(OCC(=O)N2CCCC(n3cccn3)C2)cc1 (stereo not drawn) | 3.672% | -3.023% | 6.848% | 13.22% | 1.709%
CC(C)c1nnc2n1CCN(C(=O)Cc1csc(C(C)(C)C)n1)C2 | 7.161% | -16.65% | -54.67% | 12.84% | 0.936%
Cc1nc(-c2cccc(N3CCC(N[C@@H]4CCOC4)CC3)c2)cs1 | 1.488% | -10.6% | -4.908% | 18.37% | 4.258%
Cc1c(Cl)cccc1OCC(=O)NC1(C#N)CCSC1 (stereo not drawn) | 3.776% | -3.832% | -0.6893% | 16.13% | 5.583%
NC(=O)c1cc(C2CCCN(CCCOc3ccc(F)cc3)C2)n[nH]1 (stereo not drawn) | -0.2632% | -26.87% | -12.8% | 6.481% | -15.11%
Cc1cc(N(C)Cc2ncc(-c3ccccc3C(=O)O)s2)ncn1 | -0.4932% | -24.89% | -5.668% | 4.225% | 15.96%
CC(=O)N1CC[C@@]2(O)CCCC[C@H]2[C@@H]1c1ccccc1 | -3.133% | 2.665% | -9.78% | -75.82% | -1.359%

Repeated from the top, 8 entries:

Compound	CoaBC	Pks13 thioesterase	ClpP1P2	LiHisRS	MtTrpRS
CCOc1ccccc1CN(CC)Cc1ccc(S(=O)(=O)NC)cc1	8.835%	-12.69%	1.58%	10.45%	0.273%
CN1C(=O)[C@H]2CC[C@@H]1CN(C(=O)c1csc(Cc3ccccc3)n1)C2	3.297%	-10.18%	-5.684%	2.857%	1.165%
COc1cc(C(=O)N(C)Cc2cc(C(=O)O)c(C)o2)cc(OC)c1OC	7.692%	-39.22%	-15.25%	11.97%	-9.493%
c1coc(CN2CC[C@H]3O[C@@H](COCC4CC4)CC[C@H]32)c1	2.423%	0.9132%	-8.633%	-3.191%	-3.592%
Cn1c(=O)c2sccc2n(Cc2ccccc2)c1=O	-1.38%	-37.94%	-13.05%	13.56%	-0.8675%
CCCN1CC2(CCN(C)CC2)CC1C(=O)NCc1cc(C)nn1C (stereo not drawn)	-0.8739%	-6.503%	-1.971%	8.264%	0.6255%
CC(C)N1CCC(Cc2cc(-c3cccc(C(=O)O)c3)ncn2)C1 (stereo not drawn)	3.889%	-27.17%	-6.594%	8.333%	-2.09%
O=S(=O)(NCc1cccnc1OC1CCCC1)N1CCOCC1	1.716%	-13.1%	-7.265%	-133.3%	5.062%